In assay [1] the target is T1, τ60 subunit of S. cerevisiae TFIIIC (S. cerevisiae) (UniProt Q12308).
T1 sequence: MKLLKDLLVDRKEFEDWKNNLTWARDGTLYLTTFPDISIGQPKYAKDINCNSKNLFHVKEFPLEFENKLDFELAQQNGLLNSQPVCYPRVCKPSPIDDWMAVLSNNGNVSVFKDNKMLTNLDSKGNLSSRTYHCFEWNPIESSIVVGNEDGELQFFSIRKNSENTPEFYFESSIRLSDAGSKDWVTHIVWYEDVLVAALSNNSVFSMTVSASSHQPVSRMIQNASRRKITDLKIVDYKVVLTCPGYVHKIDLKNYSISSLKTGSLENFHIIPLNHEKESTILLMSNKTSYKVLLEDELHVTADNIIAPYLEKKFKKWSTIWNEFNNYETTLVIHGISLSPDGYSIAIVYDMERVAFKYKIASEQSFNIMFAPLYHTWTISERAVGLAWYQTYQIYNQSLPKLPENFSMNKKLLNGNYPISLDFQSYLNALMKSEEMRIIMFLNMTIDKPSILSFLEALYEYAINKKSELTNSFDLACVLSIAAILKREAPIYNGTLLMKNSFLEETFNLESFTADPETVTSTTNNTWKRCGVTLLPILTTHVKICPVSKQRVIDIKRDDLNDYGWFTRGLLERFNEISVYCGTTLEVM
The experiment in a line: cryo-EM structure; TFIIICΔtail with 85-bp or 120-bp tRNA^His DNA; 20 mM HEPES pH 8.0, 2 mM MgCl2, 5 mM DTT, 75-200 mM KCl (datasets 1-5); separate reconstructions of τA–DNA (3.65 Å) and τB–DNA (2.46 Å); both purified.

In assay [2] the target is T2, τ95 subunit of S. cerevisiae TFIIIC, C-terminally truncated at residue 593 (S. cerevisiae) (UniProt P32367).
T2 sequence: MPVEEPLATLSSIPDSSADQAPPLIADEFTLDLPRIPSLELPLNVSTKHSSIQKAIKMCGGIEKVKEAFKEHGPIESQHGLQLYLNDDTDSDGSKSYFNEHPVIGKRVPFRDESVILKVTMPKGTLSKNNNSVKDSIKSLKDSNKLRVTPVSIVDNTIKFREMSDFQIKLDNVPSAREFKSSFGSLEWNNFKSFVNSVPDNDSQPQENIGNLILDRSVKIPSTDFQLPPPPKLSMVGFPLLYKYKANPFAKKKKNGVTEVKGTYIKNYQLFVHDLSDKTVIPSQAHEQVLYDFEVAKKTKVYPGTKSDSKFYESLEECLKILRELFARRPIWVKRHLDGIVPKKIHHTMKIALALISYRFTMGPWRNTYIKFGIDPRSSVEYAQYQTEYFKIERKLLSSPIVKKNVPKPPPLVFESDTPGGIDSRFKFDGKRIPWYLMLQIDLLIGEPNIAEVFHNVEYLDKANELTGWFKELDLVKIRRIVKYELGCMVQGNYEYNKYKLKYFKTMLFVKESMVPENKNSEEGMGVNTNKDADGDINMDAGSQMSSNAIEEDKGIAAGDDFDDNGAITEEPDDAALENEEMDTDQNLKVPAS
The description is as above.

For one molecule, binding results are on record in PMC11724288.

These are yes or no findings as the source states them, for the method shown. Some binding calls cover weakened binding; strength is not graded here.

B1: τ138 subunit of S. cerevisiae TFIIIC (protein, UniProt P34111 1-1160)
chain: MVLTIYPDELVQIVSDKIASNKGKITLNQLWDISGKYFDLSDKKVKQFVLSCVILKKDIEVYCDGAITTKNVTDIIGDANHSYSVGITEDSLWTLLTGYTKKESTIGNSAFELLLEVAKSGEKGINTMDLAQVTGQDPRSVTGRIKKINHLLTSSQLIYKGHVVKQLKLKKFSHDGVDSNPYINIRDHLATIVEVVKRSKNGIRQIIDLKRELKFDKEKRLSKAFIAAIAWLDEKEYLKKVLVVSPKNPAIKIRCVKYVKDIPDSKGSPSFEYDSNSADEDSVSDSKAAFEDEDLVEGLDNFNATDLLQNQGLVMEEKEDAVKNEVLLNRFYPLQNQTYDIADKSGLKGISTMDVVNRITGKEFQRAFTKSSEYYLESVDKQKENTGGYRLFRIYDFEGKKKFFRLFTAQNFQKLTNAEDEISVPKGFDELGKSRTDLKTLNEDNFVALNNTVRFTTDSDGQDIFFWHGELKIPPNSKKTPNKNKRKRQVKNSTNASVAGNISNPKRIKLEQHVSTAQEPKSAEDSPSSNGGTVVKGKVVNFGGFSARSLRSLQRQRAILKVMNTIGGVAYLREQFYESVSKYMGSTTTLDKKTVRGDVDLMVESEKLGARTEPVSGRKIIFLPTVGEDAIQRYILKEKDSKKATFTDVIHDTEIYFFDQTEKNRFHRGKKSVERIRKFQNRQKNAKIKASDDAISKKSTSVNVSDGKIKRRDKKVSAGRTTVVVENTKEDKTVYHAGTKDGVQALIRAVVVTKSIKNEIMWDKITKLFPNNSLDNLKKKWTARRVRMGHSGWRAYVDKWKKMLVLAIKSEKISLRDVEELDLIKLLDIWTSFDEKEIKRPLFLYKNYEENRKKFTLVRDDTLTHSGNDLAMSSMIQREISSLKKTYTRKISASTKDLSKSQSDDYIRTVIRSILIESPSTTRNEIEALKNVGNESIDNVIMDMAKEKQIYLHGSKLECTDTLPDILENRGNYKDFGVAFQYRCKVNELLEAGNAIVINQEPSDISSWVLIDLISGELLNMDVIPMVRNVRPLTYTSRRFEIRTLTPPLIIYANSQTKLNTARKSAVKVPLGKPFSRLWVNGSGSIRPNIWKQVVTMVVNEIIFHPGITLSRLQSRCREVLSLHEISEICKWLLERQVLITTDFDGYWVNHNWYSIYEST
On to B1, for which the binding entry in assay [1] and in assay [2] was “binds” each time.
